## Screening data, single-dose tests

The values are deposited in ChEMBL (CHEMBL3988442, “University of Dundee, Small-Polar-MMV Screening Library” (2021)).

Each number is a percent effect as filed. The record does not define 0% and 100%; most values in the screen are far below 50% and negative numbers occur (in some assays of this library far below -100). Compounds were drawn at random from those tested, without regard to their results.

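Whole-parasite assay of Trypanosoma brucei over 72 hours; the read-out is not stated. Tested at 30 µM. Direction is inferred from retests: higher values go with stronger inhibition. Values scatter widely below zero; nearly all retest evidence comes from the higher of the two concentrations used. Size under these conditions: about 64,000 compounds, about 940 of them at 50% or above in at least one test.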

| structure | percent effect |
|---|---|
| `COC1CN(C(=O)Nc2ccccc2)CCC(=O)N(C)c2ccccc21` (centres undefined) | -31.75% |
| `O=C(Nc1ccccc1F)NC1(CO)CCOCC1` | -49.25% |
| `c1ccc2cc(OCCN3CCOC(Cn4cncn4)C3)ccc2c1` (centres undefined) | 6.135% |
| `O=S(=O)(Nc1cn[nH]c1)c1ccc(Br)c(F)c1` | 8.861% |
| `Cc1nc(C)n(C2CCCN(C(=O)c3cscn3)C2)n1` (centres undefined) | -21.61% |
| `CCS(=O)(=O)N1CCC(Nc2c(Cl)cccc2C#N)CC1` | -25.74% |
| `COCCn1ccc(NC(=O)Nc2cccc(C#N)c2)n1` | 33.3% |
| `COc1nccnc1N1CCN(Cc2ccc(F)cc2)C(=O)C1` | -83.65% |
| `[H][C@@]12CNC[C@]1(C(=O)OC)CN(Cc1nc(C)c[nH]1)C2` | -4.231% |
| `Cn1cc(CNC[C@H]2Cn3ccnc3CO2)c2ccccc21` | -1.38% |
| `Cc1ccc(S(=O)(=O)N2CCC(O)(CN(C)C)C2)cc1` (centres undefined) | 4.533% |
| `O=C(O)C(F)(F)F.[H][C@@]12CN(Cc3ccco3)CCC[C@]1(C(=O)O)CN(c1ncccn1)C2` | -9.496% |
| `O=C(CCC1CCCO1)NCCc1ccccn1` (centres undefined) | -30.97% |
| `Cc1cn[nH]c1C1COCCN1S(=O)(=O)c1cn[nH]c1` (centres undefined) | 0.2187% |
| `Cc1ccc(-c2cnc(CCC(=O)NCCN3CCOCC3)o2)cc1C` | 12.33% |
| `Cc1cccc(CN(C(=O)CCn2cncn2)C(C)C)c1` | 14.69% |
| `CCn1nc2c(cc1=O)CN(c1ncnc3ccsc13)CC2` | 6.434% |
| `Cc1nc(-c2cccnc2)ncc1C(=O)N1CCCCC(N)C1` (centres undefined) | -23.08% |
| `O=C(Cc1ccsc1)N1CCCC(c2cc(C(F)F)n3ncnc3n2)C1` (centres undefined) | -24.49% |
| `COc1ccc(C2CCN(CCCC#N)CC2)cc1` | -105.1% |
| `[H][C@@]12CN(Cc3cnn(C)c3)C[C@@]1([H])N(Cc1ccncc1)C(=O)CO2` | 18.15% |
| `CCOc1ccnc(N2CCN(C(=O)CCc3ccsc3)CC2)n1` | 1.599% |
| `O=C(CCN1CCOC(C(F)(F)F)C1)NCc1ccc(Cl)cc1` (centres undefined) | -9.125% |
| `Cn1cc(N2CC3(CCN(CC4CCC4)CC3)OCC2=O)cn1.O=C(O)C(F)(F)F` | -11% |
| `Cc1cc2cccc(C(=O)N3CCOC(CCN(C)C)C3)c2o1` (centres undefined) | -18.58% |
| `CCCS(=O)(=O)N1CCN(c2ccnc(N3CCCC3)n2)CC1` | 7.197% |
| `CCn1c(NCC2CCCO2)nc2c(C)nn(C)c2c1=O` (centres undefined) | -26.34% |
| `Cc1cc(N2CCCC(OC(=O)CCc3cnn(C)c3)C2)nc(C)n1` (centres undefined) | -38.32% |
| `COc1cc2c(cc1CN1CCc3sccc3C1C)OCCO2` (centres undefined) | -8.02% |
| `[H][C@]12CC[C@]([H])(CN(c3ncccc3C(N)=O)C1)N(CC=C(C)C)C2=O` | 2.727% |
| `CCn1c(Cn2ccnc2)nnc1C1CCN(Cc2ccc(C)o2)CC1` | -29.48% |
| `Cn1cnc2c1CCN(Cc1ccc(Cl)c3cccnc13)C2` | -49.24% |
| `CN1CC(c2cc(O)nc(NCc3ccccc3Cl)n2)CC1=O` (centres undefined) | 21.78% |
| `c1cnc2nc(N3CCc4c(ncn4C4CC4)C3)ccc2n1` | -664.9% |
| `CCCNC(=O)C1CCN(Cc2csc(C(C)(C)C)n2)CC1` | -44.58% |
| `Cc1ccc(S(=O)(=O)Nc2cnn(C3CCOCC3)c2)cc1C` | -12.07% |
| `O=C(NCCNC(=O)C1CC1)c1cnc(-c2ccccc2)nc1` | -16.07% |
| `CN(C)CCNc1cc(-c2ncccc2Cl)c2cc[nH]c2n1` | -18.5% |
| `CS(=O)(=O)N1CCC2(CC1)CC(NCc1ccco1)c1ccccc12.O=C(O)C(F)(F)F` (centres undefined) | -12.19% |
| `Cc1ccc(CN(C)C(=O)c2cc(Cn3ccnc3C(C)C)[nH]n2)o1` | -8.743% |
| `COc1ccc(CN(Cc2ccco2)Cc2[nH]cnc2C)c(OC)c1.O=C(O)CC(O)(CC(=O)O)C(=O)O` | 2.055% |
| `CCc1nc2c(c(N3CCOCC3)n1)CCN(C(=O)c1ccon1)CC2` | -18.48% |
| `Cc1nccn1CC1CCCN1S(=O)(=O)Cc1ccccc1F` (centres undefined) | -20.82% |
| `c1cncc(CN2CCC(NCCc3ccc4c(c3)OCO4)CC2)c1` | -6.078% |
| `CCOCC(=O)Nc1cccc(Oc2ccccn2)c1` | 10.39% |
| `O=C(O)C(F)(F)F.[H][C@@]12CCN(S(=O)(=O)c3ccccc3)C[C@]1([H])[C@@H](CN(C)C)OC2` | -42.5% |
| `[H][C@]12CCN(S(=O)(=O)c3cccc(F)c3)[C@@]1([H])CC[C@@H](COC)O2` | -24.9% |
| `CSCC(=O)N1CCOC(c2nc(C(C)(C)C)n[nH]2)C1` (centres undefined) | -6.736% |
| `COc1ccc(OC)c(C(O)CN2CC(n3cccn3)C2)c1` (centres undefined) | 2.689% |
| `CC(C)Oc1cccc(C(=O)C2CCCN(C(=O)c3ccccn3)C2)c1` (centres undefined) | -4.906% |
| `NCCC(=O)NCC1(O)CCCN(c2ccnc3cccnc23)C1` (centres undefined) | 9.258% |
| `O=C(NCCOc1ccc2c(c1)OCO2)N1CCC1` | -0.004053% |
| `O=C(O)C(F)(F)F.O=C(O)C(F)(F)F.[H][C@@]12CCN(C3CCC3)C[C@]1(C(=O)NCCc1ccccn1)CCO2` | 7.888% |
| `Cc1ccc(-c2nnc(C(C)N3CCn4c(C)nnc4C3)o2)cc1` (centres undefined) | -37.58% |
| `Cc1nc(CCNCc2c(C)nn(C)c2N2CCOCC2)cs1` | -8.068% |
| `[H][C@@]12CCN(Cc3ccco3)C[C@@]1([H])O[C@H](c1ccnc(C(C)C)n1)C2` | 7.284% |
| `Cc1nc(CN2CCCC(N(C)Cc3cnn(C)c3)C2)no1` (centres undefined) | -62.59% |
| `CCn1ccnc1CN(C)C1CCCN(CCCc2ccccc2)C1` (centres undefined) | -20.89% |
| `O=C(CCc1ccc(OC(F)(F)F)cc1)N1CCCS1(=O)=O` | -23.04% |
| `Cc1cc(C(F)(F)F)nc(CCNc2nc(C)nc3sccc23)n1` | -13.6% |
| `O=C(COc1ccccc1NCc1ccoc1)N1CCOCC1` | -35.82% |
| `CCCc1cc(=O)[nH]c(-c2ccccc2CN(C)CCn2cccn2)n1` | -14.6% |
| `Cc1nn(C)c(C)c1CCC(=O)OCC(=O)N1CCc2sccc2C1` | -39.3% |
| `O=c1[nH]c2csnc2c(=O)n1Cc1ccc(Br)cc1` | -3.579% |
| `O=S(=O)(C1CC1)N1CCOC2(CCCN(c3cccc(F)c3)C2)C1` (centres undefined) | -20.89% |
| `C[C@@H]1CN(Cc2nc(C(N)=O)no2)CC[C@@]1(O)C1CCOCC1` | -34.65% |
| `Cc1cccnc1CNC[C@H]1Cn2cc(-c3ccccc3)nc2CO1` | -2.936% |
| `CC(CNC(=O)c1ccco1)N1CCc2sccc2C1` (centres undefined) | -41.34% |
| `Cc1cc(C)cc(C(C)NCc2nnc(C)s2)c1` (centres undefined) | -55.54% |
| `CCCn1nnnc1CN(c1ccc(N2CCOCC2)cc1)C(C)C` | -4.301% |
| `COc1cccc(Cl)c1C(C(=O)O)N1CCC(O)(c2cccnc2)CC1` (centres undefined) | -10.41% |
| `COc1ccc(CCCNCc2c(C)nn(C)c2N(C)C)cc1OC` | -15.69% |
| `CCN(CCc1nccs1)C(=O)c1ccco1` | -12.38% |
| `CN1CCCC1(CCCc1cccnc1)C(=O)NCc1nccn1C` (centres undefined) | -3.158% |
| `CCCc1cncnc1N1CCCC2(CCC(=O)N(C3CCCC3)C2)C1` (centres undefined) | -29.13% |
| `Cc1nn(C)c2cnn(Cc3ccc(C(=O)NC4CC4)cc3)c12` | -10.68% |
| `CC(=O)N1CCC2(CCCN(C(=O)CCN3CCCCC3)C2)C1` (centres undefined) | -15.82% |
| `CCCc1nccn1CCn1cnc2ccsc2c1=O` | 5.239% |
| `O=C(O)C(F)(F)F.[H][C@@]12COC[C@@H](CC(=O)N3CCCCO3)[C@]1([H])CN(Cc1c(C)noc1C)C2` | -150.7% |
| `O=C(O)C(F)(F)F.[H][C@@]12CCN(CC3CC3)[C@@]1([H])CCN2C(=O)c1ccc(C#N)cc1` | -8.518% |
| `CCn1cc(S(=O)(=O)N2CCC3(CCCN(CC4CCC4)C3=O)C2)cn1` (centres undefined) | -3.763% |
| `Cc1cc(C)c(C(=O)N2CCC3(CCCNC3)C2)cc1C` (centres undefined) | 9.56% |
| `OC(CN1CCCc2cc(OC(F)F)ccc21)Cn1cccn1` (centres undefined) | -48.6% |
| `Cc1cccc2nc(CN3CCC(Cn4ccnn4)CC3)cc(=O)n12` | -11.12% |
| `COC(=O)c1ccc(N2CCN(C(=O)C(C)C)C(C)C2)cc1` (centres undefined) | -7.321% |
| `COc1cccc(N2CCN(CC(O)c3cc(C)sc3C)CC2)c1` (centres undefined) | 80.96% |
| `Nc1nccnc1C(=O)N(Cc1ccco1)CC1CCCO1` (centres undefined) | -48.03% |
| `CN(C)C(=O)c1ccccc1NC(=O)N[C@@H]1c2ccccc2C[C@@H]1O` | -49.59% |

Repeated from the top, 7 entries:

- COC1CN(C(=O)Nc2ccccc2)CCC(=O)N(C)c2ccccc21 (centres undefined) : -31.75%
- O=C(Nc1ccccc1F)NC1(CO)CCOCC1 : -49.25%
- c1ccc2cc(OCCN3CCOC(Cn4cncn4)C3)ccc2c1 (centres undefined) : 6.135%
- O=S(=O)(Nc1cn[nH]c1)c1ccc(Br)c(F)c1 : 8.861%
- Cc1nc(C)n(C2CCCN(C(=O)c3cscn3)C2)n1 (centres undefined) : -21.61%
- CCS(=O)(=O)N1CCC(Nc2c(Cl)cccc2C#N)CC1 : -25.74%
- COCCn1ccc(NC(=O)Nc2cccc(C#N)c2)n1 : 33.3%